Measured values as given in patent publication US20210395361A1 (Alector, published 2021).
These are yes or no findings as the source states them, for the method shown. Some entries that bind do so weakly or less than the wild type. One block for each binder: values may come before it.

Assays:
Assay in all cases: ELISA on arrays of linear Siglec-5 peptides
[1] = target: T1, Siglec-5 peptide … (human)
T1 sequence (peptide): LSWFQGSPALN

[2] = target: T2, Siglec-5 peptide … (human); remark: listed apart in the source
T2 sequence (peptide): QTITIFRNGIALEILQNTS

[3] = target: T3, Siglec-5 peptide … (human); remark: listed apart in the source
T3 sequence (peptide): ITIFRNGIALE

[4] = target: T4, Siglec-5 peptide … (human); remark: listed apart in the source
T4 sequence (peptide): PCSFSYPWRSWYSS

B1: S5-202 (antibody, V domains shown)
VH: QAYLQQSGPGLVAPSQSLSITCTVSGLSLTSYGVSWVRQPPGKGLEWLGVIWGDGSTNYHSALISRLSISKDNSKSQVFLKLNSLQTDDTATYYCAKPGAFYYGSRYYWYFDVWGTGTTVTVSS
VL: DIQMTQAHKVMSTSVGDRVSITCKASQDVSTAVAWYQQKPGQSPKLLIYSASYRYTGVPDRFTGSGSGTDFTFTISSVQAEDLAVYYCQQHYSPPPTFGGGTRREIK
notes: Mouse-derived variable domains; expressed in mammalian cells as full antibody; also called S5-PN202
- binding [1]: binds

B2: S5-G-07 (antibody, V domains shown)
VH: QAYLQQSGAELARPGASVKMSCKASGYTFSSYTMYWVKQRPGQGLEWIGYINPSSGYTEYNQKFKDKATLTADKSSSTAYMQLISLTSEDSAVYYCARSDSKGDYWGQGTTLTVSS
VL: DVVMTQSPSSLSASLGERVSLTCRASQDIGNSLNWLQQEPDGTIKRLISATSSLDSGVPKRFSGSRSGSDYSLTISSLESEDFVDYYCLQYASSPLTFGAGTKLELK
notes: Mouse-derived variable domains; expressed in mammalian cells as full antibody; hIgG1 isotype control; also called SG-5-07
- binding [2]: binds

Other lines, results leading:

- binding [3]: binds
B3: S5-G-10 (antibody, V domains shown)
VH: QAYLQQSGAELVKPGASVKLSCKASGYIFTEYTIHWVKQRSGQGLEWIGWFYPGSGSIKYNEKFKDKATLTADKSSSTVYMELSRLTSEDSAVYFCATHERAAQAAWSAYWGQGTLVTVSA
VL: DVQMNQSPASLSASVGETVTITCRASGNIHNYLAWYQQKQGKSPQLLVYNAKTLTDGVPSRFSGSGSGTQYSLKINTLQPEDFGSYYCQHFWSTPYTFGGGTKLEMK
notes: Mouse-derived variable domains; expressed in mammalian cells as full antibody; hIgG1 isotype control

- binding [4]: binds
B4: Antibody 8A1 (antibody, V domains shown)
VH: EIQLQQSGPELVKPGASVKVSCKASDYAFTSYNIYWVKQSHGKSLEWIGYIDPYNGGTSYNQTFKGKATLTVDKSSSTAYMHLNSLTSEDSAVYYCAMKVGYEAMDYWGQGTSVTVSS
VL: DIVMTQSQKFMSTSVGDRVSVTCKASQNVGTYVAWYQQKPGQSPKALIYSASYRYSGVPDRFTGSGSGTDFTLNISNVQSEDLAEYFCQQFNSYPYTFGGGTKLEIK
